PubChem BioAssay AID1259354 (Paczesny and Yang Labs, IUPUI and University of Michigan, 2018)
The whole screen tested about 78,000 compounds, of which about 1,800 (2.3%) were called active. The shares of active, inactive and inconclusive entries below differ from those in the screen. No stated cut-off is given here; in the data, active means inhibition above about 30%; inconclusive means mostly about 10% to 28%; inactive means weaker than that.

Amino acid sequences for entries named in this document (tags omitted). A change or cut given only in a name is not applied to a line headed by its entry.
UniProt Q01638: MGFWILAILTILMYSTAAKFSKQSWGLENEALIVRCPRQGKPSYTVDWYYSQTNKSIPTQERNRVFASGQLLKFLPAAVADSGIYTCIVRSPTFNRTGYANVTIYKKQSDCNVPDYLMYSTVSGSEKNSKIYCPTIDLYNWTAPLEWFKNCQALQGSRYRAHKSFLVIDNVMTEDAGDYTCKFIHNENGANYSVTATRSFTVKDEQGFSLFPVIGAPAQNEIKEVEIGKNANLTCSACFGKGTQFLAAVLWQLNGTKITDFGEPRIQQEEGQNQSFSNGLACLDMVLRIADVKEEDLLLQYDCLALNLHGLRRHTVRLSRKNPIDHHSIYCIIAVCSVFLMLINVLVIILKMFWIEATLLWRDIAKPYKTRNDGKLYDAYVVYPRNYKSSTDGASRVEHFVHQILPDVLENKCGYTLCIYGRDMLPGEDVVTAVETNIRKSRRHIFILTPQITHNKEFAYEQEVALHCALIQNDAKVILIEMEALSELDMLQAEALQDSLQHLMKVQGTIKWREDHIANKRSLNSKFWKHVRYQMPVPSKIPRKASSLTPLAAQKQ

These compounds were tested against Interleukin-1 receptor-like 1 (Homo sapiens) (UniProt Q01638) (assay: blocks human ST2 binding to IL-33, primary screen, biochemical, AlphaLISA (AID 1259354)). Details: AlphaLISA ST2-Fc/biotin-IL-33 interaction, 1 h; at 17 µM, active compounds read high.
`COc1ccc(C2Nc3ccccc3NC3=C2C(=O)NC3)cc1` (centres undefined) was tested, and the inhibition was inconclusive: 18%. In the case of `CCc1nc(C)ccc1OCC(=O)NC1C=CS(=O)(=O)C1` (centres undefined), the inhibition is reported as inconclusive: 17%. `CCn1nc(C)cc1C(=O)Nc1ccc(Cl)c(C(=O)OC(C)C)c1` was tested, and the inhibition was inconclusive: 11%. For `CN(C)c1ccc(/C=C2/SC(=O)NC2=O)cc1Br`, the inhibition was inconclusive: 14%. With `CC(CC(C)(C)O)NCCc1nc(-c2ccccc2)cs1` (centres undefined) the inhibition was inconclusive: 16%. `Cn1nc(C2CCN(C(=O)c3ccncn3)CC2)n(Cc2ccccc2)c1=O` was tested, and the inhibition was inconclusive: 18%. `Cc1nn(CCC(=O)NCC2(O)CCCNCC2)c(C)c1C` (centres undefined) was tested, and the inhibition was inconclusive: 12%. With `CN(CC1CCCN(CCc2ccc(Cl)cc2)C1)C(=O)c1cnsn1` (centres undefined) the inhibition was inconclusive: 15%. With `O=[N+]([O-])c1cc2c(cc1CN1CCCCCC1)OCO2` the inhibition was “inactive”. For `O=C(NCCNC(=O)c1ccc2c(c1)OCO2)c1ccc2c(c1)OCO2`, the inhibition was “inactive”. In the case of `Cn1nc(C2CCN(C(=O)C3C=CCN3)CC2)n(Cc2ccccc2)c1=O` (centres undefined), the inhibition is reported as inconclusive: 11%. With `Cc1cc(CC(C)NC(=O)c2cn(-c3ccccc3)nn2)n[nH]1` (centres undefined) the inhibition was “inactive”. With `CC1(C)Cc2c(cnn2-c2ccc(F)cc2)C(NC(=O)c2cc(=O)c3ccccc3o2)C1` (centres undefined) the inhibition was inconclusive: 17%. For `Cc1nc2ccccc2c2c1C(=O)N(C(C)(C)C)C2=O`, the inhibition was inconclusive: 13%. In the case of `Cc1ccc(NC(=O)NC[C@H]2O[C@@H](CC(=O)NC3CC3)[C@H](O)[C@@H]2O)cc1`, the inhibition is reported as “inactive”. In the case of `CCOc1cc(-c2nccn2C(C)c2nc(CC)no2)ccc1OC` (centres undefined), the inhibition is reported as “inactive”. For `CC(C)(C)c1cc(O)c(O)c(Br)c1`, the inhibition was inconclusive: 10%. `C/C(=C\C#N)CCc1ccccc1` was tested, and the inhibition was inconclusive: 10%. For `O=C(CCN1CCCO1)N1CC[C@@H](c2ccc3ccccc3c2)[C@H](O)C1`, the inhibition was “inactive”. For `CCOC(=O)C1CCN(C(=O)Cn2c3ccccc3c(=O)c3ccccc32)CC1`, the inhibition was “inactive”. With `O=C1N=C(N2CCOCC2)S/C1=C\c1cccc(F)c1` the inhibition was inconclusive: 20%. With `c1cnc(N2CCOCC2)c(CNCc2ccc(C3CCCCO3)o2)c1` (centres undefined) the inhibition was inconclusive: 13%. For `Cc1ccc(-n2c(C)c3c(C)nnc(C)c3c2C)cc1C`, the inhibition was inconclusive: 13%. `CNCC(=O)NC(c1cccnc1)c1ccc(C)cc1C` (centres undefined) was tested, and the inhibition was inconclusive: 10%. In the case of `CCCCOc1ccc(C(=O)Nc2cccc(N3CCCS3(=O)=O)c2)cc1`, the inhibition is reported as inconclusive: 17%. In the case of `COc1ccccc1C1C(C#N)=C(N)Oc2n[nH]c(-c3ccc4ccccc4c3)c21` (centres undefined), the inhibition is reported as inconclusive: 19%. With `COc1cccc(CN2CCN(Cc3ccc(-n4cccn4)cc3)CC2=O)c1` the inhibition was “inactive”. `NNc1ccc2c(Cl)cc(Cl)c(O)c2n1` was tested, and the inhibition was active: 35%. In the case of `CCNc1ncc(C(=O)N2CCc3c(nc(C)nc3N3CCCC3)C2)cn1`, the inhibition is reported as inconclusive: 18%. `Cc1ccc(C2(O)CCN(C(=O)COc3ccccc3)CC2)nc1` was tested, and the inhibition was “inactive”. With `Cc1ccc2[nH]cc(-c3cccc(OCC(N)=O)c3)c2c1` the inhibition was inconclusive: 10%. For `CC(C)N1C[C@H](NCC(=O)NCCc2ccc(F)cc2)[C@@H](O)C1`, the inhibition was inconclusive: 10%. For `O=C1C(=O)N(CCN2CCOCC2)C(c2ccc([N+](=O)[O-])cc2)C1=C(O)c1ccccc1` (centres undefined), the inhibition was “inactive”. With `COc1ccc(I)cc1S(=O)(=O)NCc1ccccc1` the inhibition was inconclusive: 21%. With `c1ccc(C(CCNCc2ccc3c(c2)OCO3)c2ccco2)cc1` (centres undefined) the inhibition was inconclusive: 20%. In the case of `Cc1cc(NC(=O)Nc2ccc3c(ccn3C)c2)sn1`, the inhibition is reported as inconclusive: 22%. `COc1ccc2cc3cc(C(=O)N4CCCCCC4)oc3nc2c1` was tested, and the inhibition was inconclusive: 22%. In the case of `Cc1ccc2c(c1)c1c(n2CCC#N)CCN(C)C1`, the inhibition is reported as active: 42%. With `COc1cc(C(=O)n2nc(C)c(Sc3ccccc3[N+](=O)[O-])c2C)cc(OC)c1OC` the inhibition was inconclusive: 11%. With `CC1(C)CC(=O)C2=C(C1)Nc1ccccc1NC2c1cccc(Cl)c1Cl` (centres undefined) the inhibition was “inactive”. With `Cc1cccc(Oc2nc3c(c(=O)n(C)c(=O)n3C)n2Cc2ccc(F)cc2)c1` the inhibition was “inactive”. `CN(Cc1cc(-c2ccccc2)no1)Cc1nc(-c2ccc3c(c2)OCO3)no1` was tested, and the inhibition was inconclusive: 14%. For `Cc1ccc(NC(=O)COc2ccccc2F)cc1OCc1cc(=O)n2cccc(C)c2n1`, the inhibition was inconclusive: 24%. For `CCNC(=O)O[C@@H]1CO[C@H]2[C@@H]1OC[C@@H]2NC(=S)NC1CCCCC1`, the inhibition was inconclusive: 17%. With `CCOC(=O)c1c(-c2ccccc2)csc1NC(=O)c1noc2c1CCCCC2` the inhibition was “inactive”. For `CCCOc1ccc(C(=O)Nc2cccc(NC(=O)c3ccccc3)c2)cc1`, the inhibition was inconclusive: 19%. For `CCc1nc(C)ccc1OCC(=O)N1CCCC2(CN(C)C(=O)O2)C1` (centres undefined), the inhibition was “inactive”. With `COCC(C)NC(=O)c1cc(-c2cc(OC)ccc2OC)on1` (centres undefined) the inhibition was “inactive”. `c1csc(C2CCCN2c2nc3nonc3nc2N2CCSCC2)n1` (centres undefined) was tested, and the inhibition was “inactive”. `CC1(C)Cc2c(oc3ncn4ncnc4c23)CS1` was tested, and the inhibition was “inactive”. For `N#CCSc1nc2c(sc3ccccc32)c(=O)n1CCc1c[nH]c2ccccc12`, the inhibition was “inactive”. In the case of `CCOc1ncnc2c1sc1nc3c(cc12)COC(C)(C)C3`, the inhibition is reported as inconclusive: 12%. `Cc1cc(/C=C2/NC(=O)N(Cc3ccc(Cl)cc3)C2=O)c(C)n1-c1ccc([N+](=O)[O-])cc1` was tested, and the inhibition was inconclusive: 23%. For `Cc1c(-c2cccc(C(=O)O)c2)c(=O)[nH]c2ccccc12`, the inhibition was inconclusive: 13%. For `Cc1ccc(NC(=O)Oc2ccccc2)c([N+](=O)[O-])c1`, the inhibition was inconclusive: 13%. With `CC(C)C1CN(C(=O)c2ccc[nH]2)CCC(=O)N1CC1CC1` (centres undefined) the inhibition was “inactive”. In the case of `O=C(COc1nsnc1N1CCOCC1)Nc1ccc([N+](=O)[O-])cc1`, the inhibition is reported as inconclusive: 24%. In the case of `COc1ccc(C2C(C(=O)OCc3ccccc3)=C(C)Nc3ncnn32)c(OC)c1` (centres undefined), the inhibition is reported as inconclusive: 22%. For `O=C(Cc1c(C(=O)O)[nH]c2ccccc12)NCc1cccnc1`, the inhibition was “inactive”. For `Cc1ccc(-c2noc([C@@H]3C[C@@H](O)CN3Cc3cc4ccccc4o3)n2)cc1F`, the inhibition was inconclusive: 13%. With `O=[N+]([O-])c1cc(C(F)(F)F)ccc1N1CCc2ccccc21` the inhibition was active: 68%. In the case of `O=C(COc1ccccc1)Nc1nc2ccc([N+](=O)[O-])cc2s1`, the inhibition is reported as inconclusive: 10%. For `COc1ccc(Cn2c(CNC(=O)c3ccc(F)cc3)nc3cccnc32)cc1`, the inhibition was inconclusive: 16%. In the case of `COc1ccc(C(=O)CC2(O)C(=O)N(Cc3ccc(Cl)cc3)c3ccccc32)cc1[N+](=O)[O-]` (centres undefined), the inhibition is reported as inconclusive: 14%. For `CCOc1ccccc1N1CCN(C(=O)c2c(Cl)cccc2Cl)CC1`, the inhibition was inconclusive: 12%. In the case of `COc1ccccc1NC(=O)CSc1nc2c(sc3ccccc32)c(=O)n1CCN(C)C`, the inhibition is reported as inconclusive: 10%. In the case of `CNC(=O)CCN(C)c1nc(-c2cccnc2)nc2c1cnn2C`, the inhibition is reported as inconclusive: 19%. With `COc1ccc(CSc2cccc3cccnc23)cc1[N+](=O)[O-]` the inhibition was inconclusive: 27%. `COc1ccccc1Oc1nc2c(c(=O)n(C)c(=O)n2C)n1Cc1ccccc1F` was tested, and the inhibition was active: 31%. For `O=C(C[C@@H]1O[C@H](CNS(=O)(=O)c2ccc(Cl)cc2)[C@@H](O)[C@H]1O)NCCN1CCOCC1`, the inhibition was inconclusive: 22%. With `Cc1cc(C)nc(SCc2nc3cccc(C)n3c2Br)n1` the inhibition was “inactive”. For `C=CCOCCN1C(=O)C2C3c4ccccc4C(c4ccccc43)C2C1=O` (centres undefined), the inhibition was “inactive”. `CSc1ccc(-c2nc(CSCC(=O)N3CCc4ccccc4C3)c(C)o2)cc1` was tested, and the inhibition was inconclusive: 14%. For `O=S(=O)(c1ccccc1)c1ccccc1C(O)c1ccccc1` (centres undefined), the inhibition was “inactive”. With `CCOc1ccc(/C=C/C(=O)Nc2ccc3nc(N4CCN(C)CC4)cc(C)c3c2)cc1OC` the inhibition was inconclusive: 18%. `Cc1ccc(C)c(NC(=O)CCNC(=O)c2cnn3cc(C)cnc23)c1` was tested, and the inhibition was inconclusive: 15%. For `Cn1c(=O)c2c(nc(Oc3ccc(F)cc3)n2Cc2ccc(Cl)cc2)n(C)c1=O`, the inhibition was inconclusive: 15%. In the case of `Cc1ccc2c(c1)N(C(C)C(=O)N1CCOCC1)C(=O)CO2` (centres undefined), the inhibition is reported as “inactive”. `COc1ccc(CN2CCC(O)CC2)c(C)c1C` was tested, and the inhibition was inconclusive: 10%. For `COc1ccc(F)c(-c2cc(C(=O)O)cc(S(=O)(=O)N3CCSCC3)c2)c1`, the inhibition was inconclusive: 13%. In the case of `NC(=O)C1CCN([C@H]2[C@@H]3OC[C@@H](O3)[C@@H](NCc3ccccc3)[C@@H]2O)CC1`, the inhibition is reported as inconclusive: 19%. In the case of `O=C(O)CCC(=O)N[C@H]1CCN2C(=O)c3cc(-c4ccccc4)ccc3NC(=O)[C@H]12`, the inhibition is reported as “inactive”. `O=C(c1ccccc1)N1C[C@@H]2C[C@H](C1)c1c(-c3ccc(OC(F)(F)F)cc3)ccc(=O)n1C2` was tested, and the inhibition was inconclusive: 15%. With `Nc1ncc(C(=O)N2CCC(N3CCCC3=O)CC2)c(-c2ccccc2)n1` the inhibition was inconclusive: 14%. `CC(CC(=O)NCc1cccnc1)c1ccccc1` (centres undefined) was tested, and the inhibition was inconclusive: 10%. `COc1cc(C2Nc3ccc(C(=O)c4ccccc4)cc3NC3=C2C(=O)CCC3)cc(OC)c1O` (centres undefined) was tested, and the inhibition was inconclusive: 11%. For `Cc1cccn2c(CN3C[C@@]4(C)C[C@H]3CC(C)(C)C4)c(C(=O)N3CCCCC3)nc12`, the inhibition was “inactive”. In the case of `CC1=C(C(=O)Nc2cc(C)ccn2)C(c2cccc(Cl)c2Cl)C2=C(CCCC2=O)N1` (centres undefined), the inhibition is reported as “inactive”. `CCc1ccc(NC(=O)CSC2=Nc3ccccc3C3=NC(C(C)C)C(=O)N23)cc1` (centres undefined) was tested, and the inhibition was inconclusive: 12%. In the case of `CN(C(=O)c1ccccn1)C(Cc1ccccc1)C1CCN(C(=O)c2csc3c2CCCC3)CC1` (centres undefined), the inhibition is reported as inconclusive: 12%. `Cc1ccc(N2CCC(N3CCCC(C(=O)N4CCCC4)C3)CC2)nn1` (centres undefined) was tested, and the inhibition was “inactive”. In the case of `CCN1CCc2c(sc(NC(=O)c3ccc(Cl)cc3)c2C(=O)OC)C1`, the inhibition is reported as active: 89%. With `Cc1cc(OCC(=O)NC2CCCCC2C)cc(C)c1Cl` (centres undefined) the inhibition was “inactive”. With `COc1ccc(N(C(=O)COc2ccc(Cl)cc2)C2C=CS(=O)(=O)C2)c(OC)c1` (centres undefined) the inhibition was “inactive”.
